The values below come from patent publication US20030073721A1 (THE REGENTS OF THE UNIVERSITY OF CALIFORNIA, a California …, priority 2001, published 2003).

Data set [1] can be described thus: solid-phase peptide synthesis.
A further data set is described as follows: peptide synthesis. The note with it: coupling step.

In turn, Ac-Phe-Ach-Leu-Ach-Ile N-methylamide showed a step yield in data set [1] (late stage modification step, over 2 steps from acetyl derivative) of 42% over 2 steps. With Ac-Phe-Ach-Leu-Ach-Ile acid, the step yield in data set [1] (late stage modification step) is 97%. Ac-Phe-Ach-Leu-Ach-Ile tert-butyl ester gave a step yield in data set [1] (late stage modification step) of 85%.

For Ach-Leu-Ach-Ile tert-butyl ester, the step yield in data set [1] (late stage modification step) is recorded as 77%.

Consider Alloc-Ach-Leu-Ach-Ile, tert-butyl ester, for which the step yield in “peptide synthesis” turned out to be 42%.

In the case of “Fmoc-Phe-Ach-Leu-Ach-Ile, tert-butyl ester”, the step yield in data set [1] (coupling step) turned out to be 91%. In data set [1] (whole synthesis, overall, scale of the general procedure 0.1 g resin, 0.91 mmol/g), Phe-Ach-Phe-Ach-Ile returned an isolated yield of 45% overall. This substance also came in with an isolated mass in data set [1] (whole synthesis, scale 0.06 g resin) of 15 mg.
